# Test results published in paper PMC12040169 (PLOS Biology, 2025).
# The other results are listed elsewhere or left out.
# Tested on: T1, CTL2-GFP (C. trachomatis L2/434/Bu, GFP-expressing)
# T1 construct: L2/434/Bu, GFP-expressing
# Set-up: species or system HeLa; Intracellular C. trachomatis growth in HeLa cells, bulk GFP fluorescence relative to DMSO
# Conditions: bulk GFP, single well; 28.5 h, 10 µM; inhibitor
row,SMILES,% of control remaining [%]
1,N#Cc1cccc(Nc2cncc(-c3cccs3)n2)c1 [CBK066030],120.611
2,COc1ccc(C(=O)N2C[C@H]3Cc4c(n[nH]c4C(F)F)[C@H]3C2)s1 [CBK283425],123.169
3,CCc1nn(CC(=O)N2CCCC2)c(=O)c2cc3oc(C)cc3n12 [CBK283584],114.061
4,O=C1NC(=O)C(CC(=O)N2CCC3(CCN(Cc4ccccc4)C3)C2)N1 (stereo not shown) [CBK136850],88.7114
5,CN1CCCc2cc(CN3CCC4(CCCNC4=O)CC3)ccc21 [CBK284876],113.887
6,COCCC(=O)Nc1cnc(-c2ccc(F)c(Cl)c2)c(-c2cccnc2)n1 [CBK036938],173.966
7,Fc1cc(Br)c(CNCc2cocn2)c(N2CCCCC2)c1F [CBK304792],126.681
8,CC(NC(=O)N(Cc1ccc(-c2ccccc2)cc1)CC(C)(C)CN)c1cccc2ccccc12 (stereo not shown) [CBK002426C],25.4012
9,CN1CCN(Cc2c(-c3ccc(F)cc3)[nH]c3ncccc23)CC1 [CBK285335],149.837
10,CN1CCN(C(=O)CNS(=O)(=O)c2cc(Br)c(Cl)s2)CC1 [CBK034482],93.9157
11,O=C(O)C1C2C=CC(C2)C1C(=O)N1CCN(Cc2ccccc2Cl)CC1 (stereo not shown) [CBK270334],141.554
12,Cc1cccc(C(=O)Nc2cc(NC(=O)c3cccc(C)c3)cc(C(=O)O)c2)c1 [CBK269649],127.758
13,CCOC(=O)CN1CCC(Oc2nccnc2OCC2COc3ccccc3O2)CC1 (stereo not shown) [CBK082989T],112.791
14,Cc1cc(=O)[nH]c(CCNc2cc([C@H]3C[C@@H](N)C3)nc(C3CC3)n2)n1 [CBK307651],115.22
15,O=C(NC1CCc2ccccc21)N1CCN(Cc2ccccc2)CC1 (stereo not shown) [CBK155662],119.366
16,Cc1nc(C(Cc2ccsc2)NC(=O)Cn2ccnc2)sc1C (stereo not shown) [CBK284777],110.011
17,O=C1CC2(CCN(S(=O)(=O)Cc3ccc(Cl)cc3)CC2)CN1 [CBK283355],95.1785
18,CC(CNC(=O)C(C)(C)C)NC(=O)C(C)(C)C (stereo not shown) [CBK265443],132.052
19,CSc1ccc(CN(CCO)CCO)cc1 [CBK261931],114.995
20,O=C(Cc1c[nH]c2ccccc12)N1CCCC1c1ccc(F)cc1 (stereo not shown) [CBK297927],93.3884
21,CC(C)C(=O)Nc1sc2c(c1C(=O)NCc1cccnc1)CCC2 [CBK306144],124.863
22,NC(=O)Cn1c(=O)n(CCc2ccccc2)c(=O)c2c3c(sc21)CCCC3 [CBK267665],97.3181

# Ordered by heavy-atom count (smallest number first): part of the list above
row,SMILES,% of control remaining [%]
2,COc1ccc(C(=O)N2C[C@H]3Cc4c(n[nH]c4C(F)F)[C@H]3C2)s1 [CBK283425],123.169
21,CC(C)C(=O)Nc1sc2c(c1C(=O)NCc1cccnc1)CCC2 [CBK306144],124.863
14,Cc1cc(=O)[nH]c(CCNc2cc([C@H]3C[C@@H](N)C3)nc(C3CC3)n2)n1 [CBK307651],115.22
11,O=C(O)C1C2C=CC(C2)C1C(=O)N1CCN(Cc2ccccc2Cl)CC1 (stereo not shown) [CBK270334],141.554
